Our source for the binding values is patent US6929796.

The chains behind the UniProt entries cited, without tags or fusion partners. Where a name states a change or a piece, a line headed by the entry shows the natural chain unless it says otherwise. Residues count along the entry.
UniProt P02712: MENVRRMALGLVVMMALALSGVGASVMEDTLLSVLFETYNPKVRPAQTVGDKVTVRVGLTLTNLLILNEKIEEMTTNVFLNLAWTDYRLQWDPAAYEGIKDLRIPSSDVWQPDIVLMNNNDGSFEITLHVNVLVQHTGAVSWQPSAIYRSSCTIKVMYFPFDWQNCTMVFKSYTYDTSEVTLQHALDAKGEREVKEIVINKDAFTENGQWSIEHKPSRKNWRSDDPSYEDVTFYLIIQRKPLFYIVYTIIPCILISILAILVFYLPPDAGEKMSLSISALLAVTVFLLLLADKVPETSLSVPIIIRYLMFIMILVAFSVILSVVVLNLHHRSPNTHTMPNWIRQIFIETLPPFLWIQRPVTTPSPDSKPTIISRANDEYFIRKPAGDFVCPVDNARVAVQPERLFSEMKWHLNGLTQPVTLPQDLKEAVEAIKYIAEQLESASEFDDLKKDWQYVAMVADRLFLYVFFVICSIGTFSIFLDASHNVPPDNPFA
UniProt P60615, residues 22-95: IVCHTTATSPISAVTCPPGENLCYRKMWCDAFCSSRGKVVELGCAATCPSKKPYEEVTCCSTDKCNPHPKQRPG

Results are given in words; binding and its absence hold for the method and conditions named. Some entries that bind do so weakly or less than the wild type.

For the assay, the target named is Torpedo californica acetylcholine receptor (Torpedo californica) (UniProt P02712). The assay is described as follows: RIPA; Triton-solubilized TAChR labelled with 125I-αBTX.

With “α-bungarotoxin (from UniProt P60615 22-95) (ligand)”, the binding entry is “binds”.
